Patent US20010018211A1
No constants are given. Whether binding was seen depends on the method and setting. Binding seen in cells or lysates may run through a third protein. Some entries that bind do so weakly or less than the wild type.

The chains behind the UniProt entries cited, without tags or fusion partners.
UniProt Q12983: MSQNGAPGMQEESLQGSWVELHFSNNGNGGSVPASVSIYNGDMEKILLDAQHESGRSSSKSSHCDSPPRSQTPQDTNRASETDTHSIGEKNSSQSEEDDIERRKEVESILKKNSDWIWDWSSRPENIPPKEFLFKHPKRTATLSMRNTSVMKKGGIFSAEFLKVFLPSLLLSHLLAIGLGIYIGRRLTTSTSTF

What was measured:
Assay in all cases: yeast two-hybrid or co-immunoprecipitation (data not shown)
[1] = target: T1, Nip2 (UniProt Q12982)
T1 sequence (looked up): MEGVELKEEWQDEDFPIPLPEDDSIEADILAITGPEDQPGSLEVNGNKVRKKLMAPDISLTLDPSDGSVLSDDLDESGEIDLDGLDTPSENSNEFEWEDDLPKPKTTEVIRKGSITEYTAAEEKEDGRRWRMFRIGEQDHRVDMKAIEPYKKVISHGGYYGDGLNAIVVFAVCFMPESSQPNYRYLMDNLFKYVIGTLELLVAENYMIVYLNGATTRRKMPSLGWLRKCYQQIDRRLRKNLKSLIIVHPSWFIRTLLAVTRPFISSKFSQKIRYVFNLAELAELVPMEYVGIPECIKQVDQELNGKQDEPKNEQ

[2] = target: T2, Nip1 (UniProt Q12981)
T2 sequence (looked up): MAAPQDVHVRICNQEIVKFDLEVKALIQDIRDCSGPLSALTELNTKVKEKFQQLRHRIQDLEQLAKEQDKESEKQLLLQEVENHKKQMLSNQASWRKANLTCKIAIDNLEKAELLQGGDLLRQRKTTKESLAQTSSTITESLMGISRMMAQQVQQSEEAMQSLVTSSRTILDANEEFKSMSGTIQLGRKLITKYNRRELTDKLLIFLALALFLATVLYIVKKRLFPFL

[3] = target: c-Raf-1 (UniProt P04049)
[4] = target: Nip3 (UniProt Q12983)

Measured: binding

wild type human Bcl-2 (from UniProt P10415 1-239)
binds: all assays above
